The other results are listed elsewhere or left out. These are further read-outs of the screen, such as a control signal, another cell line or another target. No call is given for them. For part of these data: Most of these compounds were active or inconclusive in the main read-out, so they are no random draw.
Tests used:
PubChem AID 1586 = conditions: yeast two-hybrid polyglutamine protein interaction, reporter readout; measured here: averaged growth delta OD
[1] = selective SMN2 exon splicing luciferase activators – cell-based, SMN2/SMN1 luciferase reporters (AID 1598); conditions: SMN2 vs SMN1 luciferase splicing reporter cells, at 10 µM; SMN1 luciferase ratio: measured here: SMN1 luciferase reporter average; SMN2 luciferase ratio: measured here: SMN2 luciferase reporter average, stronger effect = higher value
[2] = rescue of PC12 cells from polyQ htt toxicity – LDH release (AID 1610); conditions: PC12 mutant huntingtin toxicity, final LDH at 4 uM, stronger effect = lower value

SMILES | signal change (36 h minus 0 h) (PubChem AID 1586) | SMN1 luciferase ratio [1] | SMN2 luciferase ratio [1] | normalised LDH release [2]
COC1=CC(=O)C[C@@H](C)[C@]12Oc1c(Cl)c(OC)cc(OC)c1C2=O | 0.0679 | 0.94 | 0.9 | 0.718
Clc1cc(Cl)c(OCC#CI)cc1Cl | 0.451 | 0.9 | 0.92 | 0.645
Cc1onc(-c2ccccc2)c1C(=O)NC1C(=O)N2[C@@H]1SC(C)(C)[C@@H]2C(=O)O (stereo partly drawn) | 0.177 | 0.88 | 0.89 | 1.11
CCCCNc1ccc(C(=O)OCCN(C)C)cc1 | 0.124 | 0.9 | 0.91 | 0.729
CCC1(c2ccccc2)C(=O)NCNC1=O | 0.189 | 0.82 | 0.78 | 0.97
C[C@H]1O[C@@H](O[C@H]2[C@@H](O)C[C@H](O[C@H]3[C@@H](O)C[C@H](O[C@H]4CC[C@]5(C)C6C[C@@H](O)[C@]7(C)[C@@H](C8=CC(=O)OC8)CC[C@]7(O)C6CC[C@@H]5C4)O[C@@H]3C)O[C@@H]2C)C[C@H](O)[C@@H]1O (stereo partly drawn) | 0.258 | 0.05 | 0.09 | 0.686
O=C(O)c1ccccc1Nc1cccc(C(F)(F)F)c1 | 0.0419 | 0.96 | 1.01 | 0.812
CCO/C([O-])=N/c1c[n+](N2CCOCC2)no1 | -0.0594 | 1.02 | 0.89 | 0.795
Oc1ccc(Cl)c2cccnc12 | 0.2 | 0.79 | 0.94 | 1.3
CN[C@H](CC(=O)O)C(=O)O | 0.0738 | 0.88 | 0.82 | 0.831
CC(=O)OCC1=C(C(=O)O)N2C(=O)[C@@H](NC(=O)Cc3cccs3)[C@H]2SC1 | 0.182 | 0.88 | 0.93 | 0.892
Cn1c(=O)c2[nH]cnc2n(C)c1=O | 0.165 | 0.83 | 0.88 | 1

Given in markdown: part of the list above.

| SMILES | signal change (36 h minus 0 h) (PubChem AID 1586) | SMN1 luciferase ratio [1] | SMN2 luciferase ratio [1] | normalised LDH release [2] |
| --- | --- | --- | --- | --- |
| Oc1ccc(Cl)c2cccnc12 | 0.2 | 0.79 | 0.94 | 1.3 |
| CN[C@H](CC(=O)O)C(=O)O | 0.0738 | 0.88 | 0.82 | 0.831 |
